Source: patent publication US20070203061
For some of these results: Where cells or extracts were used, other partners may take part. For some of these results: The exact form of at least one protein or probe is not confirmed. For some of these results: A negative result means that nothing was seen under these conditions.

By UniProt entry, the sequences of proteins in these tests, tags left out. Where a name states a change or a piece, a line headed by the entry shows the natural chain unless it says otherwise. Chains listed by the source or under a name are the forms on record and can include a tag or linker.
UniProt O35739, other isoform, or with tags, fused parts or gaps: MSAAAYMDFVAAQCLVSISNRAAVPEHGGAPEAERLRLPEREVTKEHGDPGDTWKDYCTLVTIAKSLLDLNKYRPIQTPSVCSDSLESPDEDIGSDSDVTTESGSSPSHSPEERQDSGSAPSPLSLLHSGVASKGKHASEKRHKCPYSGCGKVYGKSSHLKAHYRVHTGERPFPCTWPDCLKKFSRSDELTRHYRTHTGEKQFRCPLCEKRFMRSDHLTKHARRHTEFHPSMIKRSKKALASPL
UniProt Q04207, whole entry: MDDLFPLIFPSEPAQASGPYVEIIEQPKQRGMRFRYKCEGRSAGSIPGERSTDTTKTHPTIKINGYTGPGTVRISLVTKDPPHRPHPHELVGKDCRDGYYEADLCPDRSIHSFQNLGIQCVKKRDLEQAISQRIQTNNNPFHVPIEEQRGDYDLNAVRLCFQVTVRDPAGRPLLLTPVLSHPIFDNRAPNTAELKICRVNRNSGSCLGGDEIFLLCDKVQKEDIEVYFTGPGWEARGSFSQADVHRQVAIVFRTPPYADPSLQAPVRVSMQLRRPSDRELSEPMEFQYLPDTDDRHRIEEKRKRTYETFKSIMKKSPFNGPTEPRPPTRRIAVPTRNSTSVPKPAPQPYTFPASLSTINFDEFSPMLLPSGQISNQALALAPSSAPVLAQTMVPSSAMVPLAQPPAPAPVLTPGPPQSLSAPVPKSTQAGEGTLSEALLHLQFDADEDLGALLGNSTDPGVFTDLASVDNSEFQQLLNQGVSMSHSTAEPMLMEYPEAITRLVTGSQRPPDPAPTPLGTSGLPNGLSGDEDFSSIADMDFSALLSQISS
UniProt Q60980: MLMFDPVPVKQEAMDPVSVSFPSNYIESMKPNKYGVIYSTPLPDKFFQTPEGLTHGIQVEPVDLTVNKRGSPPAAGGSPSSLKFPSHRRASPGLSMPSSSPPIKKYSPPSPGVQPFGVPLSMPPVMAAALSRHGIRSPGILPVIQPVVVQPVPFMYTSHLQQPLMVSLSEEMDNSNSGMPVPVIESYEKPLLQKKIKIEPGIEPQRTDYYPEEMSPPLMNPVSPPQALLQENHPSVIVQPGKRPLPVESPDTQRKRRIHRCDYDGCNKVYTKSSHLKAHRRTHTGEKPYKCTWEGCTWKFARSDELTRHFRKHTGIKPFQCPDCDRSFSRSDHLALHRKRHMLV

Key:
KLF9 (Mus musculus) [1] = molecular target: KLF9 (Mus musculus) (UniProt O35739); experiment: activity in cells; conditions: KLF9 overexpression increased 32bp-tk-luc reporter in day 19 3T3L1 adipocytes; protein in cells; only the site is given
NF-kB p65 (Mus musculus) = NF-kB p65 (Mus musculus) (UniProt Q04207); experiment: EMSA; conditions: p65 not detected in complex by anti-p65 antibody; protein in an extract; protein details: native, nuclear extract of 3T3L1 adipocytes; label: 32P
KLF9 (Mus musculus) [2] = molecular target: KLF9 (Mus musculus) (UniProt O35739); experiment: EMSA; conditions: anti-KLF9 supershift or reduction of complex I; competed by excess BTE, not by NF-kB consensus; complex absent in KLF9 knockout WAT; 2.5 mM MgCl2, 50 mM KCl, pH 7.6; protein in an extract; label: 32P
KLF3 (Mus musculus) = KLF3 (Mus musculus) (UniProt Q60980); experiment: EMSA; conditions: KLF3 not detected in complex by anti-KLF3 antibody; protein in an extract; protein details: native, nuclear extract of 3T3L1 adipocytes; label: 32P
KLF3 = KLF3 (UniProt Q60980); experiment: one hybrid; conditions: ten independent cDNA isolates; 15 mM 3-aminotriazole; protein in cells
NF-kB p65 = NF-kB p65 (UniProt Q04207); experiment: one hybrid; conditions: four independent cDNA isolates; 15 mM 3-aminotriazole; protein in cells
KLF9 = KLF9 (UniProt O35739); experiment: one hybrid; conditions: two independent cDNA isolates; 15 mM 3-aminotriazole; protein in cells

Sequence | activity on this sequence (KLF9 (Mus musculus) [1]) | binding result (NF-kB p65 (Mus musculus)) | binding result (KLF9 (Mus musculus) [2]) | binding result (KLF3 (Mus musculus)) | binding result (KLF3) | binding result (NF-kB p65) | binding result (KLF9)
GAAGCCCAAGCTGGGTTGTACCAGGTTCCCTA (double strand) [adiponectin promoter -188/-157 32-bp element] | active | no binding | binds | no binding |  |  | 
GAAGCCCAAGCTGGGTTGTACCAGGTTCCCTAGAAGCCCAAGCTGGGTTGTACCAGGTTCCCTAGAAGCCCAAGCTGGGTTGTACCAGGTTCCCTA (double strand) [(32 bp)x3 trimer of -188/-157 element] |  |  |  |  | binds | binds | binds
